Data from patent US20210095045A1.
These are yes or no findings as the source states them, for the method shown. Some entries that bind do so weakly or less than the wild type.

Key:
[1] = molecular target: T1, murine MAEA (macrophage erythroblast attacher) (mouse) (UniProt Q4VC33); assay: flow cytometry on mouse bone marrow cells, MAEA-deleted cells as control
T1 sequence (looked up): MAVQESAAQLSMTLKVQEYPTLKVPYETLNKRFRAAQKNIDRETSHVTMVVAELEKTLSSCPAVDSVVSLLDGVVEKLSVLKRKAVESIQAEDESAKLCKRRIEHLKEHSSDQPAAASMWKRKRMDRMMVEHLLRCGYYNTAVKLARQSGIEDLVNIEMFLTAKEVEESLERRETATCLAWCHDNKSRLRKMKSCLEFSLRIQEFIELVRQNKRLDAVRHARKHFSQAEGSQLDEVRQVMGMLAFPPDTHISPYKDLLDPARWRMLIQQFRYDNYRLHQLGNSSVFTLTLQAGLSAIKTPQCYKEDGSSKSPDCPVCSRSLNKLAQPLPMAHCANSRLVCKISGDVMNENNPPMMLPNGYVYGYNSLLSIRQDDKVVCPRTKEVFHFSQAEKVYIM

[2] = molecular target: T1, murine MAEA (macrophage erythroblast attacher) (mouse); assay: flow cytometry on mouse bone marrow macrophages, MAEA-deleted cells as control

B1: Anti-MAEA mAb 92.25 (antibody, V domains shown)
VH: EVQLQQFGAELVRPGASVKISCKASGYTFTDYNMDWVKQSHAKRLEWIGDINPNYDSPTYSQKFKGRATLTVDNSSSTAYMELRSLTSEDTAVYYCARGHYYGYGYFDVWGAGTTVTVSS
VL: DIEMTQSQKFMSTAVGDRVSVTCKASQNVGTNVAWYQQKPGKSPKVLIYSASYRYSGVPDRFRGSRSGTDFTLTISNVQSEDLAEYFCQQYNTYPWTFGGGTKLEIK
[1]
  binding: binds
[2]
  binding: binds
